# No constants are given. Whether binding was seen depends on the method and setting. In cells and extracts the contact can be indirect. These calls come from enrichment with a bait or labelling near it, and not all partners need be listed. Where a sequence is shown, tags or fusion partners need not be part of it.
# By UniProt entry, the sequences of proteins in these tests, tags left out.
# UniProt Q9R190: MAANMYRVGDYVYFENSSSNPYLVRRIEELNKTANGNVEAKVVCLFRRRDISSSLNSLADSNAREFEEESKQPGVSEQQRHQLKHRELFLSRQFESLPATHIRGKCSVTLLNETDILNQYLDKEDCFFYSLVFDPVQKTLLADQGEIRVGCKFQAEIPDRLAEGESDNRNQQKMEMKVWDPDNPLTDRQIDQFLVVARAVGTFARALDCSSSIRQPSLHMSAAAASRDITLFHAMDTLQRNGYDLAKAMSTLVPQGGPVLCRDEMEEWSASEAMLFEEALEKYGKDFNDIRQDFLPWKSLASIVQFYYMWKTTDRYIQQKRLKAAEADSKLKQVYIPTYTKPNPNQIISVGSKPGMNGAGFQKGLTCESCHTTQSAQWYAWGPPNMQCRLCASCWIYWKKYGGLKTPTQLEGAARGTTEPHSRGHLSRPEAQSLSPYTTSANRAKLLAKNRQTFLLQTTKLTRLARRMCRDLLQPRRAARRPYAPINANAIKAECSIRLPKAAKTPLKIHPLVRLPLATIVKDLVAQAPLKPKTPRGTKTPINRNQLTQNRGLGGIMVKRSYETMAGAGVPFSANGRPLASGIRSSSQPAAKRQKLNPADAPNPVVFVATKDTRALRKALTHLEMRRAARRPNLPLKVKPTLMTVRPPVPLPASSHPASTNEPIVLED
# UniProt Q8K4B0: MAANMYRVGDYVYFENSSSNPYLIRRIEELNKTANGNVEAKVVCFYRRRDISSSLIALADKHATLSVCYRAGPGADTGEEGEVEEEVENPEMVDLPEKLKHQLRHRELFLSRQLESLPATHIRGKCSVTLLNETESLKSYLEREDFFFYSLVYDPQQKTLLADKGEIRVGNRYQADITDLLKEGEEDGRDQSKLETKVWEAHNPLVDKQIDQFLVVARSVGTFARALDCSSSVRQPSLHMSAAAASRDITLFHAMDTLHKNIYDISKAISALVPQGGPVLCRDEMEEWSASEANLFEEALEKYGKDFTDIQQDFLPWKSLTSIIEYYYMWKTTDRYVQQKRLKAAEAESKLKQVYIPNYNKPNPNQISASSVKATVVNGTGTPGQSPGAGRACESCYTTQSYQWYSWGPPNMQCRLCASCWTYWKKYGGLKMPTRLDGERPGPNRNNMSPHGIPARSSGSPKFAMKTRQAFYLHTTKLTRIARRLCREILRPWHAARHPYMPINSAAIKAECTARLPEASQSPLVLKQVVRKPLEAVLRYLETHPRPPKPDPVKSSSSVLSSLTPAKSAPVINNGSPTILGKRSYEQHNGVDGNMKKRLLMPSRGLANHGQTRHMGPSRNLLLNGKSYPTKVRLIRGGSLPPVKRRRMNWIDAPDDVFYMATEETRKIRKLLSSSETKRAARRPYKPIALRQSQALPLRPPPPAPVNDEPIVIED
# Molecular target: T1, FLAG-KDM4D (mouse) (UniProt Q3U2K5)
# T1 sequence: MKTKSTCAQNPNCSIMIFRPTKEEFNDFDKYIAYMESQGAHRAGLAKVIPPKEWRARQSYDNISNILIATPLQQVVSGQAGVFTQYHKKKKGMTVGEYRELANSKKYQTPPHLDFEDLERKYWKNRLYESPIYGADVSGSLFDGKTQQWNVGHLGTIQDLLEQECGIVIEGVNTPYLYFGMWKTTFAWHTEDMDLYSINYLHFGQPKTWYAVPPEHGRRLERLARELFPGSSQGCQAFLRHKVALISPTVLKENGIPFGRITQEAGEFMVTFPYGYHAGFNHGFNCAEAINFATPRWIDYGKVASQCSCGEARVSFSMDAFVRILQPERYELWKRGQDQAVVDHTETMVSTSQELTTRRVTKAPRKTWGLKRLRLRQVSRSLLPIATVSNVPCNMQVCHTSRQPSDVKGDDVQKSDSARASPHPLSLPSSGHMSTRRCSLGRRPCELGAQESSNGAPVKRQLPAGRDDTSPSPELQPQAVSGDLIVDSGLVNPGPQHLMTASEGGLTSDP
# Assay: affinity purification with mass spectrometry; nuclear extracts (RIPA buffer, sonicated) of C3H10T1/2 cells expressing full length FLAG-KDM4D incubated with FLAG-M2 agarose for 16 h at 4 °C; SDS-PAGE, LC-MS/MS
row,Substance,binding
1,Mta2 (from UniProt Q9R190 1-668),binds
2,Mta1 (from UniProt Q8K4B0 1-715),binds
